# Assay results from publication doi:10.1101/2022.02.23.481653.
# Sequences of proteins named here, by UniProt entry; tags and fusion partners are left off. A change or cut given only in a name is not applied to a line headed by its entry. A line that says so, or that is headed by a name, gives the form on record, which may keep a tag or linker.
# SEPT9_i3NCmut-msfGFP (Q9UHD8-2, form named): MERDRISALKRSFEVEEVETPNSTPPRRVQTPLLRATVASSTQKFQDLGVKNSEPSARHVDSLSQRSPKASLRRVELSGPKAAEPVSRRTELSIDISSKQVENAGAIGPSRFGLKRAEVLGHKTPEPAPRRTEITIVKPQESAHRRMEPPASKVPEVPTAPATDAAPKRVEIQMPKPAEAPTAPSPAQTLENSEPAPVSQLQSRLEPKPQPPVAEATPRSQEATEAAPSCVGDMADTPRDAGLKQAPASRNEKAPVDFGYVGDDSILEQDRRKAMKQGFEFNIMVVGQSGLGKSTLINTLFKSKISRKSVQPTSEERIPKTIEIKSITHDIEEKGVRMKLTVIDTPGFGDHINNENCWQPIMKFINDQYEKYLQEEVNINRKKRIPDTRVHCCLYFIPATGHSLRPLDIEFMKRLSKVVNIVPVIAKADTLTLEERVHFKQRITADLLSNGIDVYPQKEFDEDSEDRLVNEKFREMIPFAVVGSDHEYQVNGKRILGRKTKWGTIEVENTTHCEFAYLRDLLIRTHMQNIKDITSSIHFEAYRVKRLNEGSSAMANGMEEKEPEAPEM
# Results are given in words; binding and its absence hold for the method and conditions named. Some entries that bind do so weakly or less than the wild type. For some of these results: Sequences can lack the tags named with a protein.
# Columns and labels:
# [1] = biological target: SEPT9_i3NCmut-msfGFP (human) (UniProt Q9UHD8); experiment: native gel or EMSA
# [2] = biological target: T1, recombinant human septin hexamers with wild-type SEPT2-msfGFP (SEPT2-SEPT6-SEPT7-SEPT7-SEPT6-SEPT2) (human) (UniProt Q15019); experiment: fluorescence microscopy of reconstituted septin filaments
# T1 sequence 1: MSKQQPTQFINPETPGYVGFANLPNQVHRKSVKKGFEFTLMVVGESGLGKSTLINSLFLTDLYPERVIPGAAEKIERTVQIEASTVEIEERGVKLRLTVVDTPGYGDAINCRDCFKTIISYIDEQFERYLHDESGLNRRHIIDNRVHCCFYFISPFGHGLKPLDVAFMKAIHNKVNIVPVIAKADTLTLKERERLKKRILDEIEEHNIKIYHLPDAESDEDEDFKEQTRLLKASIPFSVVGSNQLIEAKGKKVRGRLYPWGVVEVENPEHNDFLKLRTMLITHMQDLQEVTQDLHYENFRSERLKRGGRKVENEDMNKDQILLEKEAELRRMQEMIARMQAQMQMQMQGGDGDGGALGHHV
# T1 sequence 2: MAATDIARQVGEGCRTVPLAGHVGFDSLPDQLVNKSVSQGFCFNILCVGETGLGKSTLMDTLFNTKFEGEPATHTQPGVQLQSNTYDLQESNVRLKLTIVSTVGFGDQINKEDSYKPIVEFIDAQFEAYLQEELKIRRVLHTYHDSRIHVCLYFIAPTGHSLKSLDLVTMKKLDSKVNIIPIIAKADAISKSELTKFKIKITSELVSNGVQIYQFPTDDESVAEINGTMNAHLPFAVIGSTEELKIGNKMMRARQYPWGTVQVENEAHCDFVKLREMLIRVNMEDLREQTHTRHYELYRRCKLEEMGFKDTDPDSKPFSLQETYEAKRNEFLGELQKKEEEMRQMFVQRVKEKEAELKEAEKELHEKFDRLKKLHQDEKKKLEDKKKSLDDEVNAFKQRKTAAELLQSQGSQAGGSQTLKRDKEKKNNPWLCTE
# T1 sequence 3: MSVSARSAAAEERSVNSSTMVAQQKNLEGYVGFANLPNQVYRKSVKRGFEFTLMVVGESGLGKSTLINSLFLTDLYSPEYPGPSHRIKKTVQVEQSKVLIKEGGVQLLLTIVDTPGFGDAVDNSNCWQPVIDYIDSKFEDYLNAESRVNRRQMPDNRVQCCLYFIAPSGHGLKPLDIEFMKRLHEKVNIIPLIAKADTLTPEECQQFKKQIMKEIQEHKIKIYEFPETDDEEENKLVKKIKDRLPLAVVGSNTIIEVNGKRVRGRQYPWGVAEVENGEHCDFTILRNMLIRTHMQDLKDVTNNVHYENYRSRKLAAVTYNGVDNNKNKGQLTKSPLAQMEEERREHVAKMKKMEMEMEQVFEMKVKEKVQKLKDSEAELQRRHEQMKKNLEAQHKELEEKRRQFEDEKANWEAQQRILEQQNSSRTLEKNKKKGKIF
# [3] = biological target: recombinant human septin octamers-9_i3 with SEPT2NCmut-msfGFP (SEPT2 F20D, V27D) (human) (UniProt Q15019); experiment: as above
# [4] = biological target: recombinant human septin octamers-9_i3 with wild-type SEPT2-msfGFP (SEPT2-SEPT6-SEPT7-SEPT9-SEPT9-SEPT7-SEPT6-SEPT2) (human) (UniProt Q15019); experiment: as above
substance,measurement,setting,value
SEPT9_i3NCmut-msfGFP (from UniProt Q9UHD8-2 1-568),binding,[1],no binding
recombinant human septin octamers-9_i3 with SEPT2-sfCherry2 (from UniProt Q15019;Q14141;Q16181;Q9UHD8-2) (complex),binding,[2],binds
"recombinant human septin octamers-9_i3 with SEPT2NCmut-msfGFP (SEPT2 F20D, V27D) (from UniProt Q15019;Q14141;Q16181;Q9UHD8-2) (complex)",binding,[3],no binding
recombinant human septin octamers-9_i3 with wild-type SEPT2-msfGFP (SEPT2-SEPT6-SEPT7-SEPT9-SEPT9-SEPT7-SEPT6-SEPT2) (from UniProt Q15019;Q14141;Q16181;Q9UHD8-2) (complex),binding,[4],binds
